Results deposited as PubChem BioAssay AID602196 (INSERM, 2012).
Here is one part, drawn at random, of about 23,000 deposited reagents. 455 of all reagents (2%) were called active. 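Active includes both protection and sensitisation; some change values fall well beyond the stated -50 to +50 range.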 Entries without a mark were called inactive. The record does not give: the amount of reagent.

Assay: 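Modifiers of cisplatin sensitivity in A549 cells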
Cells: human A549 lung cancer cells
Reagent: siRNA pair against human genes
Duration: 48 h transfection before cisplatin; time from cisplatin to read-out not stated
Conditions: cisplatin at a dose killing half of control-siRNA cells; exact dose and duration not given
Measured: 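Cisplatin cell death as a shift from the 50% death seen with control siRNA; siRNAs toxic or growth-blocking alone scored 0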
Reading the numbers: two-siRNA summed score (-2 to +2): higher = both siRNAs protect from cisplatin killing; -2 means both sensitise; mean protection from cisplatin (shift in death) and protection from cisplatin (shift in death), siRNA C and protection from cisplatin (shift in death), siRNA D: higher = protection from cisplatin killing
Rule for the call: 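siRNAs harmful alone (LDH or WST-1) get 0; others get +1 for less and -1 for more cisplatin killing; genes are active when the two siRNAs give the same sign, summing to ±2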
Meaning of the calls: active = both siRNAs shift cisplatin killing the same way; inactive = no consistent shift, or siRNA harmful alone

Target gene | PubChem SID | two-siRNA summed score (-2 to +2) | mean protection from cisplatin (shift in death) (%) | protection from cisplatin (shift in death), siRNA C (%) | protection from cisplatin (shift in death), siRNA D (%)
PILRB | SID131500605 | -1 | -19.7 | -29.7 | -9.7
PYGB | SID131522298 | 1 | 17.6 | 6.9 | 28.2
MTURN | SID131507715 | 0 | 0.2 | 3.2 | -2.8
MLLT1 | SID131504572 | 0 | -5 | -9.9 | -0.2
ACSF3 | SID131511650 | 0 | 4.6 | -1.2 | 10.4
RCSD1 | SID131501784 | -1 | -7.4 | -17.5 | 2.7
APOC3 | SID131506259 | 0 | -1.8 | -4.1 | 0.5
EOLA1 | SID131514022 | 0 | 7.3 | -4.4 | 19
TMSB15A | SID131505897 | 0 | -2.4 | 5.9 | -10.6
LOC388421 | SID131516366 | 0 | 10.7 | 17 | 4.4
LOC390734 | SID131515895 | 0 | 9.9 | -16.4 | 36.1
TRABD2B | SID131514672 | 0 | 8.1 | 13.4 | 2.8
LOC389329 | SID131522745 | 1 | 22.8 | 19.7 | 26
LOC402397 | SID131507050 | 0 | -0.6 | 6.7 | -8
FAM201A | SID131522778 | 1 | 23.9 | 22.8 | 25.1
BAX | SID131519058 | 1 | 1.8 | 5.3 | -1.7
TIRAP | SID131512998 | 0 | 6.1 | 6.3 | 5.9
LAMP2 | SID131502837 | 0 | -25.2 | -10.9 | -39.5
LOC391142 | SID131508683 | 0 | 1.3 | 8.9 | -6.2
LTBP2 | SID131505661 | 0 | -2.8 | 5.6 | -11.2
RBM3 | SID131511016 | 0 | 3.9 | 10.5 | -2.7
RBM3 | SID131512583 | 0 | 5.6 | 5.1 | 6.2
LOC441597 | SID131518427 | 0 | 19.5 | 12.6 | 26.4
LOC440560 | SID131501758 | -1 | -7.5 | -12.6 | -2.5
LOC442267 | SID131515941 | 0 | 9.9 | 10.5 | 9.4
RHEX | SID131513128 | 0 | 6.2 | 10.4 | 2
LOC441311 | SID131506177 | 0 | -1.9 | 4.6 | -8.4
POMGNT2 | SID131503842 | 0 | -7.5 | -22.1 | 7.1
CORO1B | SID131507413 | 0 | -0.2 | -8.8 | 8.5
CORO1B | SID131508415 | 0 | 1 | -10.1 | 12.1
CAGE1 | SID131515446 | 0 | 9.2 | 16.9 | 1.4
CAMTA2 | SID131520606 | 1 | 10.4 | 6.3 | 14.6
LOC441471 | SID131514080 | 0 | 7.4 | 11.2 | 3.5
ARL6IP4 | SID131518151 | 0 | 16.9 | -1.3 | 35.2
AP4M1 | SID131507319 | 0 | -0.3 | -1.9 | 1.3
ARID5B | SID131512355 | 0 | 5.4 | 4.3 | 6.5
INPP4A | SID131508071 | 0 | 0.6 | 0.4 | 0.8
HACD2 | SID131518479 | 0 | 20.3 | -2 | 42.5
COL14A1 | SID131503987 | 0 | -6.9 | -22.6 | 8.8
LOC441148 | SID131522354 | 1 | 17.9 | 9.5 | 26.3
SDR16C5 | SID131504694 | 0 | -4.7 | -7.5 | -2
RHBDD2 | SID131520836 | 1 | 11.3 | 19.4 | 3.2
ALDH1L1 | SID131513158 | 0 | 6.3 | 1.5 | 11.1
CCNJL | SID131509947 | 0 | 2.7 | -13.4 | 18.7
FA2H | SID131502490 | -1 | -1.9 | -28.5 | 24.7
SPRED1 | SID131522499 | 1 | 19.2 | 24.1 | 14.3
BSPRY | SID131511997 | 0 | 5 | 1.4 | 8.5
CABLES1 | SID131520324 | 1 | 9.5 | -1.7 | 20.7
TSPAN14 | SID131514700 | 0 | 8.1 | 15.8 | 0.4
LOC441912 | SID131520603 | 1 | 10.4 | 14 | 6.8
LOC389077 | SID131516747 | 0 | 11.5 | 16 | 7
BPIFA1 | SID131519883 | 1 | 7.8 | 10.3 | 5.3
PGD | SID131522572 | 1 | 20 | 15.1 | 24.9
LOC338734 | SID131523094 | 2 (active) | 19.6 | 20 | 19.2
H4C16 | SID131516875 | 0 | 11.8 | 16 | 7.7
MBD2 | SID131502845 | 0 | -23.6 | 6.2 | -53.3
ZCCHC7 | SID131512599 | 0 | 5.7 | 7.9 | 3.4
